Results are given in words; binding and its absence hold for the method and conditions named. Binding seen in cells or lysates may run through a third protein. Binding can be weak; no strength is given. Where a sequence is shown, tags or fusion partners need not be part of it.

The target of the test is T1, HA-tagged Yorkie (Yki) (Drosophila) (UniProt Q45VV3).
T1 sequence: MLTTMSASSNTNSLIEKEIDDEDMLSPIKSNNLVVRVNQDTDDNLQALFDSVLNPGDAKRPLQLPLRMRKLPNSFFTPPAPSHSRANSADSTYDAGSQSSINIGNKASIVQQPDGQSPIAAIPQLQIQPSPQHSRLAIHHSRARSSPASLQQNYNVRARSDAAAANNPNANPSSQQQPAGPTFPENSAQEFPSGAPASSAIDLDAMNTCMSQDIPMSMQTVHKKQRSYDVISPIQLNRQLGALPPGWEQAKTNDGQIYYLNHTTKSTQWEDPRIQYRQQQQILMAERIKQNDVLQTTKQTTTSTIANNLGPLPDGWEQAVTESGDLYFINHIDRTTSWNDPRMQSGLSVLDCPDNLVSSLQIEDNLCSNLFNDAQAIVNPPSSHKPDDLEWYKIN
Put plainly: co-IP; S2 cells transfected with the indicated Tai and Yki constructs, harvested 48 h after transfection; immunoprecipitation and western blot with the indicated antibodies. (In general: Immunoblotting shows a protein as a band on a membrane.)

Turning to Taiman (Tai), full length (Drosophila), the binding entry is listed as “binds”.
